Changes are numbered by the printed parent chain. The list shows a part of the results. For some assays here: At the low end of the ranking, values are background and their order means little.
Key:
Conditions in all cases: yeast three-hybrid, YBZ-1, SC-Leu-His + 0.5 mM 3-AT, 4 days
[1] = target: T1, PUM1 PUF domain R2-KCA N899K + Y900C + Q903A (UniProt Q14671)
T1 sequence: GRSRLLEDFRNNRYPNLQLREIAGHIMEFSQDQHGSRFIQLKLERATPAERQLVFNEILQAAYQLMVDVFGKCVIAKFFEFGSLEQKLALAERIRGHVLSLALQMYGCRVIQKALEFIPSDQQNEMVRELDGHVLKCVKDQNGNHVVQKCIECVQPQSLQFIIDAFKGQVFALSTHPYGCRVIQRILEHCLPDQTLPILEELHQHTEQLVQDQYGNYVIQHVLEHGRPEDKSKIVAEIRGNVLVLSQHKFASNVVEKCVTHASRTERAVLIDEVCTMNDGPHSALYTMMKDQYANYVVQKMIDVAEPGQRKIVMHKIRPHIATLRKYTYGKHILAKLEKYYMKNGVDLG

[2] = target: T2, PUM1 PUF domain R2-KIG N899K + Y900I + Q903G (UniProt Q14671)
T2 sequence: T1 sequence with C73I, A76G

[3] = target: T3, PUM1 PUF domain R1-GGE S863G + R864G + Q867E (Homo sapiens) (UniProt Q14671)
T3 sequence: T1 sequence with S36G, R37G, Q40E, K72N, C73Y, A76Q

[4] = target: T4, PUM1 PUF domain R1-GWE S863G + R864W + Q867E (Homo sapiens) (UniProt Q14671)
T4 sequence: T1 sequence with S36G, R37W, Q40E, K72N, C73Y, A76Q

[5] = target: T5, PUM1 PUF domain R1-NWS S863N + R864W + Q867S (Homo sapiens) (UniProt Q14671)
T5 sequence: T1 sequence with S36N, R37W, Q40S, K72N, C73Y, A76Q

[6] = target: T6, PUM1 PUF domain R1-SRD Q867D (Homo sapiens) (UniProt Q14671)
T6 sequence: T1 sequence with Q40D, K72N, C73Y, A76Q

[7] = target: T7, PUM1 PUF domain R1-GAS S863G + R864A + Q867S (UniProt Q14671)
T7 sequence: T1 sequence with S36G, R37A, Q40S, K72N, C73Y, A76Q

[8] = target: T8, PUM1 PUF domain R1-QGR S863Q + R864G + Q867R (Homo sapiens) (UniProt Q14671)
T8 sequence: T1 sequence with S36Q, R37G, Q40R, K72N, C73Y, A76Q

[9] = target: T9, PUM1 PUF domain R1-SGR R864G + Q867R (Homo sapiens) (UniProt Q14671)
T9 sequence: T1 sequence with R37G, Q40R, K72N, C73Y, A76Q

[10] = target: T10, PUM1 PUF domain R1-SVR R864V + Q867R (Homo sapiens) (UniProt Q14671)
T10 sequence: T1 sequence with R37V, Q40R, K72N, C73Y, A76Q

[11] = target: T11, PUM1 PUF domain R6-FRE N1043F + Y1044R + Q1047E (UniProt Q14671)
T11 sequence: T1 sequence with K72N, C73Y, A76Q, N216F, Y217R, Q220E

[12] = target: T12, PUM1 PUF domain R6-FRS N1043F + Y1044R + Q1047S (UniProt Q14671)
T12 sequence: T1 sequence with K72N, C73Y, A76Q, N216F, Y217R, Q220S

[13] = target: T13, PUM1 PUF domain R6-GWR N1043G + Y1044W + Q1047R (Homo sapiens) (UniProt Q14671)
T13 sequence: T1 sequence with K72N, C73Y, A76Q, N216G, Y217W, Q220R

[14] = target: T14, PUM1 PUF domain R6-HFR N1043H + Y1044F + Q1047R (UniProt Q14671)
T14 sequence: T1 sequence with K72N, C73Y, A76Q, N216H, Y217F, Q220R

[15] = target: T15, PUM1 PUF domain R6-NFW Y1044F + Q1047W (UniProt Q14671)
T15 sequence: T1 sequence with K72N, C73Y, A76Q, Y217F, Q220W

[16] = target: T16, PUM1 PUF domain R6-RPG N1043R + Y1044P + Q1047G (UniProt Q14671)
T16 sequence: T1 sequence with K72N, C73Y, A76Q, N216R, Y217P, Q220G

[17] = target: T17, PUM1 PUF domain R6-SFG N1043S + Y1044F + Q1047G (Homo sapiens) (UniProt Q14671)
T17 sequence: T1 sequence with K72N, C73Y, A76Q, N216S, Y217F, Q220G

[18] = target: T18, PUM1 PUF domain R6-SFV N1043S + Y1044F + Q1047V (UniProt Q14671)
T18 sequence: T1 sequence with K72N, C73Y, A76Q, N216S, Y217F, Q220V

[19] = target: T19, PUM1 PUF domain R6-TFR N1043T + Y1044F + Q1047R (Homo sapiens) (UniProt Q14671)
T19 sequence: T1 sequence with K72N, C73Y, A76Q, N216T, Y217F, Q220R

[20] = target: T20, PUM1 PUF domain R6-THR N1043T + Y1044H + Q1047R (UniProt Q14671)
T20 sequence: T1 sequence with K72N, C73Y, A76Q, N216T, Y217H, Q220R

“GGCUAGAACUAGUGGAUCCCCCGGCGCCCGGCGGCUCGAGCCCGGGUAAGUGUAAAUAGUCUGCAUGCCGCCGGGCGCCAUGCCUGCAGGUCGACUCUAGAAAACAUG” gave a binding signal (log2 enrichment (interaction score)) [1] of less than -6.62 and a binding signal (log2 enrichment (interaction score)) [2] of -5.19.
“GGCUAGAACUAGUGGAUCCCCCGGCGCCCGGCGGCUCGAGCCCGGGUAAGUGUAAAUCGUCUGCAUGCCGCCGGGCGCCAUGCCUGCAGGUCGACUCUAGAAAACAUG” gave a binding signal (log2 enrichment (interaction score)) [3] of -0.82, a binding signal (log2 enrichment (interaction score)) [4] of -1.59 and a binding signal (log2 enrichment (interaction score)) [5] of -1.78. It also gave a binding signal (log2 enrichment (interaction score)) [6] of -1.26.
In the case of “GGCUAGAACUAGUGGAUCCCCCGGCGCCCGGCGGCUCGAGCCCGGGUAAGUGUAAAUUGUCUGCAUGCCGCCGGGCGCCAUGCCUGCAGGUCGACUCUAGAAAACAUG”, the binding signal (log2 enrichment (interaction score)) [7] is reported as -3.99, the binding signal (log2 enrichment (interaction score)) [3] is reported as -1.27 and the binding signal (log2 enrichment (interaction score)) [4] is reported as -0.52. It also gave a binding signal (log2 enrichment (interaction score)) [8] of 0.03, a binding signal (log2 enrichment (interaction score)) [9] of -0.66 and a binding signal (log2 enrichment (interaction score)) [6] of -0.71. The binding signal (log2 enrichment (interaction score)) [10] was -1.12.
Sequence “GGCUAGAACUAGUGGAUCCCCCGGCGCCCGGCGGCUCGAGCCCGGGUAAGUGUAAAUGGUCUGCAUGCCGCCGGGCGCCAUGCCUGCAGGUCGACUCUAGAAAACAUG” has a binding signal (log2 enrichment (interaction score)) [7] of -5.1, a binding signal (log2 enrichment (interaction score)) [5] of -0.33 and a binding signal (log2 enrichment (interaction score)) [8] of -0.19. It also gave a binding signal (log2 enrichment (interaction score)) [9] of -0.9 and a binding signal (log2 enrichment (interaction score)) [10] of -1.08.
“GGCUAGAACUAGUGGAUCCCCCGGCGCCCGGCGGCUCGAGCCCGGGUAAGUGAAAAUAGUCUGCAUGCCGCCGGGCGCCAUGCCUGCAGGUCGACUCUAGAAAACAUG” showed a binding signal (log2 enrichment (interaction score)) [11] of less than -9.4, a binding signal (log2 enrichment (interaction score)) [12] of less than -8.16 and a binding signal (log2 enrichment (interaction score)) [13] of -1.72. The binding signal (log2 enrichment (interaction score)) [14] was -3.99, the binding signal (log2 enrichment (interaction score)) [15] was -3.98 and the binding signal (log2 enrichment (interaction score)) [16] was less than -9.26. For the same sequence, the binding signal (log2 enrichment (interaction score)) [17] was 1.21, the binding signal (log2 enrichment (interaction score)) [18] was -4.81 and the binding signal (log2 enrichment (interaction score)) [19] was 0.26. The binding signal (log2 enrichment (interaction score)) [20] was less than -8.17.
With “GGCUAGAACUAGUGGAUCCCCCGGCGCCCGGCGGCUCGAGCCCGGGUAAGUGGAAAUAGUCUGCAUGCCGCCGGGCGCCAUGCCUGCAGGUCGACUCUAGAAAACAUG” the binding signal (log2 enrichment (interaction score)) [11] was less than -9.06, the binding signal (log2 enrichment (interaction score)) [12] was less than -7.06 and the binding signal (log2 enrichment (interaction score)) [13] was -1.13. The binding signal (log2 enrichment (interaction score)) [14] was -5.59, the binding signal (log2 enrichment (interaction score)) [15] was -5.84 and the binding signal (log2 enrichment (interaction score)) [16] was less than -9.02. It also gave a binding signal (log2 enrichment (interaction score)) [17] of -5.7, a binding signal (log2 enrichment (interaction score)) [18] of less than -8.64 and a binding signal (log2 enrichment (interaction score)) [19] of -5.13. The binding signal (log2 enrichment (interaction score)) [20] was less than -7.73.

Source: paper PMC8384837
